Consider one molecule from article PMC12255758.

Chains of the proteins cited; added tags and fusions are not shown.
UniProt Q9UNE7: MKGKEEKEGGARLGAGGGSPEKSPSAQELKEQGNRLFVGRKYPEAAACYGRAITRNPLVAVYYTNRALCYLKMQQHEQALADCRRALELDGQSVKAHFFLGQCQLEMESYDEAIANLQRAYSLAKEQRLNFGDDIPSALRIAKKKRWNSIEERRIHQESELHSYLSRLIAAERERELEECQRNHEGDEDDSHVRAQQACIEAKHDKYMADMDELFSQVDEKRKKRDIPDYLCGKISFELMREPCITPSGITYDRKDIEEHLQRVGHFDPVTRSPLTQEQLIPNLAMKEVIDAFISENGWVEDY

No constants are given. Whether binding was seen depends on the method and setting. Binding seen in cells or lysates may run through a third protein. Here binding means that the protein was enriched with, or labelled near, the bait; the list need not be complete.

The assay has as its target Flag-tagged full-length STUB1 (UniProt Q9UNE7). The assay can be described thus: affinity purification with mass spectrometry; Flag-STUB1 and associated proteins captured from cell lysates with anti-Flag magnetic beads; complexes separated on a gel, silver stained, mass spectrometry.

B1: endogenous GOT2 (enzyme, UniProt P00505 30-430)
chain: SSWWTHVEMGPPDPILGVTEAFKRDTNSKKMNLGVGAYRDDNGKPYVLPSVRKAEAQIAAKNLDKEYLPIGGLAEFCKASAELALGENSEVLKSGRFVTVQTISGTGALRIGASFLQRFFKFSRDVFLPKPTWGNHTPIFRDAGMQLQGYRYYDPKTCGFDFTGAVEDISKIPEQSVLLLHACAHNPTGVDPRPEQWKEIATVVKKRNLFAFFDMAYQGFASGDGDKDAWAVRHFIEQGINVCLCQSYAKNMGLYGERVGAFTMVCKDADEAKRVESQLKILIRPMYSNPPLNGARIAAAILNTPDLRKQWLQEVKVMADRIIGMRTQLVSNLKKEGSTHNWQHITDQIGMFCFTGLKPEQVERLIKEFSIYMTKDGRISVAGVTSSNVGYLAHAIHQVTK
B1: the binding entry was “binds”.
